Assay results published in the supplement of paper PMC8728848.
The other results are listed elsewhere or left out.

Columns and labels:
Assay in all cases: glycan array binding signal (z-score within array); higher = stronger binding
Conditions in all cases: glycan notation: IUPAC condensed, linker removed
[1] = molecular target: Gal(b1-3)GalNAc(b1-4)[Neu5Ac(a2-3)]Gal(b1-4)Glc
Method in brief: (§1)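 Arrays were curated from the Consortium for Functional Glycomics database, 3228 in total, and kept only where the protein sequence was available. Binding is expressed as a within-array Z-score. This score was averaged across arrays of the same protein sequence at different concentrations or buffers and across linkers, and negative values can be read as non-binding.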

[2] = molecular target: Gal(b1-3)GlcNAc
Method in brief: as §1

[3] = molecular target: Gal(b1-3)GlcNAc(a1-3)Gal(b1-4)GlcNAc
Method in brief: as §1

[4] = molecular target: Gal(b1-3)GlcNAc(a1-6)Gal(b1-4)GlcNAc
Method in brief: as §1

[5] = molecular target: Gal(b1-3)GlcNAc(b1-2)Man
Method in brief: as §1

[6] = molecular target: Gal(b1-3)GlcNAc(b1-2)Man(a1-3)[Gal(b1-3)GlcNAc(b1-2)Man(a1-6)]Man(b1-4)GlcNAc(b1-4)GlcNAc
Method in brief: as §1

[7] = molecular target: Gal(b1-3)GlcNAc(b1-2)Man(a1-3)[Gal(b1-3)GlcNAc(b1-2)Man(a1-6)]Man(b1-4)GlcNAc(b1-4)[Fuc(a1-6)]GlcNAc
Method in brief: as §1

[8] = molecular target: Gal(b1-3)GlcNAc(b1-2)Man(a1-3)[GlcNAc(b1-4)][Gal(b1-3)GlcNAc(b1-2)Man(a1-6)]Man(b1-4)GlcNAc(b1-4)GlcNAc
Method in brief: as §1

[9] = molecular target: Gal(b1-3)GlcNAc(b1-2)[Gal(b1-3)GlcNAc(b1-6)]Man(a1-6)[Gal(b1-3)GlcNAc(b1-2)Man(a1-3)]Man(b1-4)GlcNAc(b1-4)GlcNAc
Method in brief: as §1

[10] = molecular target: Gal(b1-3)GlcNAc(b1-3)Gal(b1-3)GlcNAc
Method in brief: as §1

[11] = molecular target: Gal(b1-3)GlcNAc(b1-3)Gal(b1-4)Glc
Method in brief: as §1

[12] = molecular target: Gal(b1-3)GlcNAc(b1-3)Gal(b1-4)GlcNAc
Method in brief: as §1

[13] = molecular target: Gal(b1-3)GlcNAc(b1-3)Gal(b1-4)GlcNAc(b1-2)Man(a1-3)[Gal(b1-3)GlcNAc(b1-3)Gal(b1-4)GlcNAc(b1-2)Man(a1-6)]Man(b1-4)GlcNAc(b1-4)GlcNAc
Method in brief: as §1

[14] = molecular target: Gal(b1-3)GlcNAc(b1-3)Gal(b1-4)GlcNAc(b1-2)[Gal(b1-3)GlcNAc(b1-3)Gal(b1-4)GlcNAc(b1-6)]Man(a1-6)[Gal(b1-3)GlcNAc(b1-3)Gal(b1-4)GlcNAc(b1-2)Man(a1-3)]Man(b1-4)GlcNAc(b1-4)[Fuc(a1-6)]GlcNAc
Method in brief: as §1

[15] = molecular target: Gal(b1-3)GlcNAc(b1-3)Gal(b1-4)GlcNAc(b1-3)Gal(b1-4)GlcNAc(b1-2)[Gal(b1-3)GlcNAc(b1-3)Gal(b1-4)GlcNAc(b1-3)Gal(b1-4)GlcNAc(b1-6)]Man(a1-6)[Gal(b1-3)GlcNAc(b1-3)Gal(b1-4)GlcNAc(b1-3)Gal(b1-4)GlcNAc(b1-2)Man(a1-3)]Man(b1-4)GlcNAc(b1-4)[Fuc(a1-6)]GlcNAc
Method in brief: as §1

[16] = molecular target: Gal(b1-3)GlcNAc(b1-3)Gal(b1-4)GlcNAc(b1-6)[Gal(b1-3)GlcNAc(b1-3)]Gal(b1-4)Glc
Method in brief: as §1

[17] = molecular target: Gal(b1-3)GlcNAc(b1-3)Gal(b1-4)[Fuc(a1-3)]GlcNAc(b1-6)[Gal(b1-3)GlcNAc(b1-3)]Gal(b1-4)Glc
Method in brief: as §1

[18] = molecular target: Gal(b1-3)GlcNAc(b1-3)GalNAc
Method in brief: as §1

[19] = molecular target: Gal(b1-3)GlcNAc(b1-6)Gal(b1-4)GlcNAc
Method in brief: as §1

[20] = molecular target: Gal(b1-3)GlcNAc(b1-6)GalNAc
Method in brief: as §1

[21] = molecular target: Gal(b1-3)GlcNAc(b1-6)[Gal(b1-3)]GalNAc
Method in brief: as §1

[22] = molecular target: Gal(b1-3)GlcNAc6S
Method in brief: as §1

[23] = molecular target: Gal(b1-3)[Fuc(a1-4)]GlcNAc
Method in brief: as §1

[24] = molecular target: Gal(b1-3)[Fuc(a1-4)]GlcNAc(b1-2)Man
Method in brief: as §1

[25] = molecular target: Gal(b1-3)[Fuc(a1-4)]GlcNAc(b1-2)Man(a1-3)[Gal(b1-3)[Fuc(a1-4)]GlcNAc(b1-2)Man(a1-6)]Man(b1-4)GlcNAc(b1-4)GlcNAc
Method in brief: as §1

[26] = molecular target: Gal(b1-3)[Fuc(a1-4)]GlcNAc(b1-2)Man(a1-3)[Gal(b1-3)[Fuc(a1-4)]GlcNAc(b1-2)Man(a1-6)]Man(b1-4)GlcNAc(b1-4)[Fuc(a1-6)]GlcNAc
Method in brief: as §1

[27] = molecular target: Gal(b1-3)[Fuc(a1-4)]GlcNAc(b1-3)Gal(b1-3)[Fuc(a1-4)]GlcNAc
Method in brief: as §1

[28] = molecular target: Gal(b1-3)[Fuc(a1-4)]GlcNAc(b1-3)Gal(b1-4)GlcNAc
Method in brief: as §1

[29] = molecular target: Gal(b1-3)[Fuc(a1-4)]GlcNAc(b1-3)Gal(b1-4)[Fuc(a1-3)]GlcNAc
Method in brief: as §1

[30] = molecular target: Gal(b1-3)[Fuc(a1-4)]GlcNAc(b1-6)GalNAc
Method in brief: as §1

[31] = molecular target: Gal(b1-3)[GlcNAc(b1-6)]GalNAc
Method in brief: as §1

[32] = molecular target: Gal(b1-3)[Neu5Ac(a2-6)]GalNAc
Method in brief: as §1

[33] = molecular target: Gal(b1-3)[Neu5Ac(a2-6)]GlcNAc(b1-4)Gal(b1-4)Glc
Method in brief: as §1

[34] = molecular target: Gal(b1-3)[Neu5Ac(a2-6)]GlcNAc(b1-6)Gal(b1-4)Glc
Method in brief: as §1

[35] = molecular target: Gal(b1-3)[Neu5Ac(b2-6)]GalNAc
Method in brief: as §1

[36] = molecular target: Gal(b1-4)Gal
Method in brief: as §1

[37] = molecular target: Gal(b1-4)GalNAc(a1-3)[Fuc(a1-2)]Gal(b1-4)GlcNAc
Method in brief: as §1

[38] = molecular target: Gal(b1-4)GalNAc(b1-3)[Fuc(a1-2)]Gal(b1-4)GlcNAc
Method in brief: as §1

[39] = molecular target: Gal(b1-4)Glc
Method in brief: as §1

[40] = molecular target: Gal(b1-4)Glc6S
Method in brief: as §1

[41] = molecular target: Gal(b1-4)GlcNAc
Method in brief: as §1

[42] = molecular target: Gal(b1-4)GlcNAc(a1-6)Gal(b1-4)GlcNAc
Method in brief: as §1

[43] = molecular target: Gal(b1-4)GlcNAc(b1-2)Man
Method in brief: as §1

[44] = molecular target: Gal(b1-4)GlcNAc(b1-2)Man(a1-3)Man(b1-4)GlcNAc(b1-4)GlcNAc
Method in brief: as §1

[45] = molecular target: Gal(b1-4)GlcNAc(b1-2)Man(a1-3)[Gal(b1-4)GlcNAc(b1-2)Man(a1-6)]Man(b1-4)GlcNAc(b1-4)GlcNAc
Method in brief: as §1

B1: Gal 12 (Homo sapiens), Q96DT0 (protein)
chain: MSQPSGGRAPGTRIYSWSCPTVMSPGEKLDPIPDSFILQPPVFHPVVPYVTTIFGGLHAGKMVMLQGVVPLDAHRFQVDFQCGCSLCPRPDIAFHFNPRFHTTKPHVICNTLHGGRWQREARWPHLALRRGSSFLILFLFGNEEVKVSVNGQHFLHFRYRLPLSHVDTLGIFGDILVEAVGFLNINPFVEGSREYPAGHPFLLMSPRLEVPCSHALPQGLSPGQVIIVRGLVLQEPKHFTVSLRDQAAHAPVTLRASFADRTLAWISRWGQKKLISAPFLFYPQRFFEVLLLFQEGGLKLALNGQGLGATSMNQQALEQLRELRISGSVQLYCVHS
[1]
  glycan array binding signal (z-score): -0.439
[2]
  glycan array binding signal (z-score): -0.052
[3]
  glycan array binding signal (z-score): -0.325
[4]
  glycan array binding signal (z-score): -0.349
[5]
  glycan array binding signal (z-score): 1.39
[6]
  glycan array binding signal (z-score): 0.94
[7]
  glycan array binding signal (z-score): -0.24
[8]
  glycan array binding signal (z-score): -1.06
[9]
  glycan array binding signal (z-score): 0.266
[10]
  glycan array binding signal (z-score): -0.421
[11]
  glycan array binding signal (z-score): -0.471
[12]
  glycan array binding signal (z-score): 0.058
[13]
  glycan array binding signal (z-score): -0.574
[14]
  glycan array binding signal (z-score): -0.541
[15]
  glycan array binding signal (z-score): -0.532
[16]
  glycan array binding signal (z-score): -0.661
[17]
  glycan array binding signal (z-score): 0.206
[18]
  glycan array binding signal (z-score): -0.004
[19]
  glycan array binding signal (z-score): 0.021
[20]
  glycan array binding signal (z-score): -0.771
[21]
  glycan array binding signal (z-score): -0.472
[22]
  glycan array binding signal (z-score): -1.73
[23]
  glycan array binding signal (z-score): 0.051
[24]
  glycan array binding signal (z-score): -0.47
[25]
  glycan array binding signal (z-score): -0.186
[26]
  glycan array binding signal (z-score): -0.591
[27]
  glycan array binding signal (z-score): -0.224
[28]
  glycan array binding signal (z-score): 1.19
[29]
  glycan array binding signal (z-score): -0.423
[30]
  glycan array binding signal (z-score): -1.1
[31]
  glycan array binding signal (z-score): -0.067
[32]
  glycan array binding signal (z-score): -0.049
[33]
  glycan array binding signal (z-score): 1.14
[34]
  glycan array binding signal (z-score): 0.922
[35]
  glycan array binding signal (z-score): -0.015
[36]
  glycan array binding signal (z-score): 0.011
[37]
  glycan array binding signal (z-score): -0.722
[38]
  glycan array binding signal (z-score): 1
[39]
  glycan array binding signal (z-score): -0.083
[40]
  glycan array binding signal (z-score): -0.209
[41]
  glycan array binding signal (z-score): -0.477
[42]
  glycan array binding signal (z-score): -0.194
[43]
  glycan array binding signal (z-score): -0.021
[44]
  glycan array binding signal (z-score): 0.045
[45]
  glycan array binding signal (z-score): 0.053
